Measured data: PubChem BioAssay AID1259308 (NCATS, 2017)
Purpose: 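Candidate targets for better recombinant protein yield in mammalian cells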 (primary screen). Cells: human HEK293 embryonic kidney cells stably expressing firefly luciferase (HEK-CMV-Luc2-Hygro). Reagent: single siRNA against human genes, 0.8 pmol siRNA per well. Duration: 72 h. Read-out: 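Reporter luminescence and viable-cell signal on separate replicate plates, given as percent of non-targeting control and median/MAD z-scores, plus per-cell luciferase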. Reading the numbers: total luciferase, z-score and total luciferase, % of control: higher = more reporter protein produced. Hit rule: 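An siRNA counts as active if its total luciferase robust z-score exceeds 3; genes with two or more such siRNAs out of three were retested with fresh siRNAs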. Meaning of the calls: active = raised luciferase; inactive = no rise.
In all, the deposit lists about 59,000 reagents; this is a part drawn at random. Over the whole deposit, about 1,510 (2.6%) are marked active. 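Calls use total luciferase alone and ignore viability, so some active siRNAs may act by altering cell number.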 Unmarked entries are inactive. The numbers tell different reagents against one gene apart. Not all columns of the deposit are shown.

TXLNB #1 | total luciferase, z-score = -3.02; total luciferase, % of control = 21.9
TXLNB #2 | total luciferase, z-score = -1.08; total luciferase, % of control = 60.3
TXLNB #3 | total luciferase, z-score = 0.627; total luciferase, % of control = 94.4
TUBGCP5 #1 | total luciferase, z-score = 0.118; total luciferase, % of control = 84.2
TUBGCP5 #2 | total luciferase, z-score = -0.06; total luciferase, % of control = 80.7
TUBGCP5 #3 | total luciferase, z-score = 1.59; total luciferase, % of control = 114

Part of the list above, reformatted:
gene symbol,reagent,"total luciferase, z-score","total luciferase, % of control"
TUBGCP5,2,-0.06,80.7
TUBGCP5,3,1.59,114

More reagents follow.
ACKR2 #1 | total luciferase, z-score = 0.682; total luciferase, % of control = 95.5
ACKR2 #2 | total luciferase, z-score = 0.133; total luciferase, % of control = 84.5
ACKR2 #3 | total luciferase, z-score = -0.736; total luciferase, % of control = 67.2
HEXIM1 #1 | total luciferase, z-score = -0.289; total luciferase, % of control = 76.1
HEXIM1 #2 | total luciferase, z-score = 3.38 (active); total luciferase, % of control = 149
HEXIM1 #3 | total luciferase, z-score = 0.851; total luciferase, % of control = 98.8
